# Measured values published in the supplement of paper PMC10849652.
# By UniProt entry, the sequences of proteins in these tests, tags left out. Where a name states a change or a piece, a line headed by the entry shows the natural chain unless it says otherwise.
# UniProt O94888: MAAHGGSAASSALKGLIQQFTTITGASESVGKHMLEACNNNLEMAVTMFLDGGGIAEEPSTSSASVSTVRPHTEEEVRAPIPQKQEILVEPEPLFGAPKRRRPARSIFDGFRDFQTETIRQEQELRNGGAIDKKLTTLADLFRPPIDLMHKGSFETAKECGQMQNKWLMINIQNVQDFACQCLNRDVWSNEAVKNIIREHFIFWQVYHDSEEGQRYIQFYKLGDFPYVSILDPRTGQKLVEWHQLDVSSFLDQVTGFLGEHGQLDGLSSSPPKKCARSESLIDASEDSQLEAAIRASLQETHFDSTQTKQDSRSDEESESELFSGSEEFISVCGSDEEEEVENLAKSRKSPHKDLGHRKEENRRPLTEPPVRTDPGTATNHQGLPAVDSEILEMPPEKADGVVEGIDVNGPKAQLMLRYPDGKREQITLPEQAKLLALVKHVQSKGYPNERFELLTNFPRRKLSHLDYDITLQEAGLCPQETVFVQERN
# UniProt Q92738: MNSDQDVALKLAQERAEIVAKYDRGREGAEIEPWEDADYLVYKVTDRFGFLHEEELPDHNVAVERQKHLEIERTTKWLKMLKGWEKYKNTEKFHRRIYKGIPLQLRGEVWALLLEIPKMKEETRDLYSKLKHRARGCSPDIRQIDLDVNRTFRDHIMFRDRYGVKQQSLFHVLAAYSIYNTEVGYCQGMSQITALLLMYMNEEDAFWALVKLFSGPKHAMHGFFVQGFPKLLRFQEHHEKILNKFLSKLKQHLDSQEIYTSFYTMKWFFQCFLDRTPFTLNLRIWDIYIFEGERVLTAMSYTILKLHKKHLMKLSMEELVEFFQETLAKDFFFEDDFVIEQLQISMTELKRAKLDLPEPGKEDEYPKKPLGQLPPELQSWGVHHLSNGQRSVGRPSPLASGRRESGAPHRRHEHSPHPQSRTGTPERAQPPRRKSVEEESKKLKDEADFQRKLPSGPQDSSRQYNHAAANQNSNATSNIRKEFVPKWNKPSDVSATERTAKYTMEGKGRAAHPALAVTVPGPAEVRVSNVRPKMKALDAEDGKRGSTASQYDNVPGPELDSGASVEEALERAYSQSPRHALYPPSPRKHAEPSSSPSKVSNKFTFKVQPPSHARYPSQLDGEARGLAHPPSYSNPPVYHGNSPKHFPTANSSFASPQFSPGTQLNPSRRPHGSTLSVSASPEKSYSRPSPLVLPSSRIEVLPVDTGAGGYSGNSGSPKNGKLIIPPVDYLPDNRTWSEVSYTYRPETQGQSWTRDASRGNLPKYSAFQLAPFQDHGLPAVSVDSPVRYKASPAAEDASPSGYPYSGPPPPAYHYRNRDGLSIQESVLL
# UniProt Q9UMX0, whole entry, looked up: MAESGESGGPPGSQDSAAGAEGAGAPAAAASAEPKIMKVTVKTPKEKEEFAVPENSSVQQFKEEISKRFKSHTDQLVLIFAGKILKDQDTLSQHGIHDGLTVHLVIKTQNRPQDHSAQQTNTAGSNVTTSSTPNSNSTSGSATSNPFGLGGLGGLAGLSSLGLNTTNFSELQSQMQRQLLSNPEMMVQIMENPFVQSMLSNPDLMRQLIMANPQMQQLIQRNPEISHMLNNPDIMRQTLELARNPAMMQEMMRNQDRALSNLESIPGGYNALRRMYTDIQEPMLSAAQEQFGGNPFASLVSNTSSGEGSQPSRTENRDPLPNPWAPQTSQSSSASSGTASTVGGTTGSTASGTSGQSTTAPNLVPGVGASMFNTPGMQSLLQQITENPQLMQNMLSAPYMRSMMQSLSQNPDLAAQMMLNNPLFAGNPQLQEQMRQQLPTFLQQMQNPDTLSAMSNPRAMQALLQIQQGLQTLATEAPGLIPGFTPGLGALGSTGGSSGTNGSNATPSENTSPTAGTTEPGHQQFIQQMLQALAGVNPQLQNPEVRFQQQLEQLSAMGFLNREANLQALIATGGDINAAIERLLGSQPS
# UniProt Q16880: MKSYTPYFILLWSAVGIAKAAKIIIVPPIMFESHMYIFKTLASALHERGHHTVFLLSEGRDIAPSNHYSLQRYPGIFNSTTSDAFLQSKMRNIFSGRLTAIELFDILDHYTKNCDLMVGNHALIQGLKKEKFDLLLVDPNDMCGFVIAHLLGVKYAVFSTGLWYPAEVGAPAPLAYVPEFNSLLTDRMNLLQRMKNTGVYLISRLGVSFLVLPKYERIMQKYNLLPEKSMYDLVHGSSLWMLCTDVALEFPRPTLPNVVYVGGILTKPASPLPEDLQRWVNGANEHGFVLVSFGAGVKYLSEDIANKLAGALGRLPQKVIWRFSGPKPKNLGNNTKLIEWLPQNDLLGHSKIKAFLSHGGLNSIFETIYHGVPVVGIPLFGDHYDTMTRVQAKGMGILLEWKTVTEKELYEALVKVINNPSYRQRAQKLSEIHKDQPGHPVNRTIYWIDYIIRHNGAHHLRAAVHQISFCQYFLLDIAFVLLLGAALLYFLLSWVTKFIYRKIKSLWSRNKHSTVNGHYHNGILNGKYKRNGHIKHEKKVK
# UniProt Q8NBZ7: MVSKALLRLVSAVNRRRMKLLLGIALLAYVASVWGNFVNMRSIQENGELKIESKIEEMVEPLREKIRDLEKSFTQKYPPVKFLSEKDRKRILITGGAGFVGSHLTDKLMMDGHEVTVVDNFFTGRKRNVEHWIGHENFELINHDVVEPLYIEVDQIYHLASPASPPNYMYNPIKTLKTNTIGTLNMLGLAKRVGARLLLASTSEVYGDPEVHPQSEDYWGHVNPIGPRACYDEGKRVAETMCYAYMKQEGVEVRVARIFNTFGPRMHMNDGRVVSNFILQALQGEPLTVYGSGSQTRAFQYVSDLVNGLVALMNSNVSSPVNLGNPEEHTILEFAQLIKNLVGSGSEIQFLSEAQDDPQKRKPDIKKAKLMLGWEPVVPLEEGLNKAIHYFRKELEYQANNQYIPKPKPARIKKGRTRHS
# UniProt Q8TED0: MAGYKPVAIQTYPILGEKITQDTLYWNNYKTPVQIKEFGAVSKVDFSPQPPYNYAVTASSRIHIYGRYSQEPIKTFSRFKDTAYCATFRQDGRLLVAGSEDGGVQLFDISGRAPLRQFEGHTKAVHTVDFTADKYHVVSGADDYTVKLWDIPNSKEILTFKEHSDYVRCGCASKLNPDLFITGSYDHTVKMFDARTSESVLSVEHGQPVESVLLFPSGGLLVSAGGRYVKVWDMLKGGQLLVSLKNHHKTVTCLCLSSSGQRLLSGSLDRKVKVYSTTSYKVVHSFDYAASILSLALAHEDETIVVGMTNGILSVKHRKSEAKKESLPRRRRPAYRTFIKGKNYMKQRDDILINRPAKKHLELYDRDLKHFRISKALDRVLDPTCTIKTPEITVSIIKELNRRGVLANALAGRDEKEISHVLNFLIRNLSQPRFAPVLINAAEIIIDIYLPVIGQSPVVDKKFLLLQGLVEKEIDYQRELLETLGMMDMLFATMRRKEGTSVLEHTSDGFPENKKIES
# UniProt P11441: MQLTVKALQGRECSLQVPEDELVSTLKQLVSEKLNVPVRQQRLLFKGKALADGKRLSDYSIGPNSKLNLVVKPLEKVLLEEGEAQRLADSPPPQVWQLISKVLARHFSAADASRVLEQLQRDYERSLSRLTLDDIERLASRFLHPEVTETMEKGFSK
# UniProt Q15386: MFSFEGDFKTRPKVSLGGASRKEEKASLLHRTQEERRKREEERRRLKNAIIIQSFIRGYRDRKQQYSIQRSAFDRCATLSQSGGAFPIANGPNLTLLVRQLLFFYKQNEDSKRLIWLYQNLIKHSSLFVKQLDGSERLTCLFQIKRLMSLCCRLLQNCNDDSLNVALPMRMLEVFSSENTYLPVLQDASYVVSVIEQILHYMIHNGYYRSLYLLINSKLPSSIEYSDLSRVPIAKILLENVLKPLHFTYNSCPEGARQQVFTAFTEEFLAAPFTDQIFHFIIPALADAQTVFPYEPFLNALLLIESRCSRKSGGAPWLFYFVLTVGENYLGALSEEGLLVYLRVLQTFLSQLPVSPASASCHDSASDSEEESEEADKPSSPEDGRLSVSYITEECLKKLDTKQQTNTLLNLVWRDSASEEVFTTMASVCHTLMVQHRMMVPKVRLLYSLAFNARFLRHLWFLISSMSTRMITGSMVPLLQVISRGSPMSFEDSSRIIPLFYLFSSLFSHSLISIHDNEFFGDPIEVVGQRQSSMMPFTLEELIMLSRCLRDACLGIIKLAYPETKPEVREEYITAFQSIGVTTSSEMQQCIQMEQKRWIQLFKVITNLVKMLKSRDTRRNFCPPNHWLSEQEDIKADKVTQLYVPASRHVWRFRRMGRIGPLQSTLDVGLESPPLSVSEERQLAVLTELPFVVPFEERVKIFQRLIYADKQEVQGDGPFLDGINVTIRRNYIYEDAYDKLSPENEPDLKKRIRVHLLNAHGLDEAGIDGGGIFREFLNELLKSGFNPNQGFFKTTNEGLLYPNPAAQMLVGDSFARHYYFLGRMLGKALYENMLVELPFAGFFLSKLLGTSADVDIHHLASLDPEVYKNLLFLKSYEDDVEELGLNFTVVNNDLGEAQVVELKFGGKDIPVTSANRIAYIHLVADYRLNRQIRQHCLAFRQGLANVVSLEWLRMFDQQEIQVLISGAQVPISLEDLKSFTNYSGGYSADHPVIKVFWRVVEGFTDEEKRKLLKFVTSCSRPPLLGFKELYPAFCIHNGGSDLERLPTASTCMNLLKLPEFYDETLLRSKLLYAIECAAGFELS
# UniProt Q9NWZ5: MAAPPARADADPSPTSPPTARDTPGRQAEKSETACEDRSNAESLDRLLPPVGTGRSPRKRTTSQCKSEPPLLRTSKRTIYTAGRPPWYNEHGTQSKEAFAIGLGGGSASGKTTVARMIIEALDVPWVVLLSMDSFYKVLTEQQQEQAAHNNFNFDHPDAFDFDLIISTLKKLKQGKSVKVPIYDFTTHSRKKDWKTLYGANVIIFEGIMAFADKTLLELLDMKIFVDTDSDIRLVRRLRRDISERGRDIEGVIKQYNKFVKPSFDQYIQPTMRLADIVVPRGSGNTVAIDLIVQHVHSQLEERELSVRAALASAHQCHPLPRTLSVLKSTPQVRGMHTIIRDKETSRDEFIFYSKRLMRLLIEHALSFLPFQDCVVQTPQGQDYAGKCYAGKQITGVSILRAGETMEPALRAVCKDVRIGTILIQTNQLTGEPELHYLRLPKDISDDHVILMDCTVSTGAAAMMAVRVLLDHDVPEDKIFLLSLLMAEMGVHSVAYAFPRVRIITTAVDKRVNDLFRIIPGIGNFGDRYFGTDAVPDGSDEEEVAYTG
# UniProt P14927: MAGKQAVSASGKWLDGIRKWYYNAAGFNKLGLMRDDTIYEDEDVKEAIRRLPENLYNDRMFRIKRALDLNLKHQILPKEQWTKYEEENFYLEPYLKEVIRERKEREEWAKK
# UniProt Q9BZL1: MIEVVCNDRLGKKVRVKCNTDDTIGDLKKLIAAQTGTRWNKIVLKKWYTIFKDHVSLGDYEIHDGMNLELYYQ
# UniProt Q9NUQ7: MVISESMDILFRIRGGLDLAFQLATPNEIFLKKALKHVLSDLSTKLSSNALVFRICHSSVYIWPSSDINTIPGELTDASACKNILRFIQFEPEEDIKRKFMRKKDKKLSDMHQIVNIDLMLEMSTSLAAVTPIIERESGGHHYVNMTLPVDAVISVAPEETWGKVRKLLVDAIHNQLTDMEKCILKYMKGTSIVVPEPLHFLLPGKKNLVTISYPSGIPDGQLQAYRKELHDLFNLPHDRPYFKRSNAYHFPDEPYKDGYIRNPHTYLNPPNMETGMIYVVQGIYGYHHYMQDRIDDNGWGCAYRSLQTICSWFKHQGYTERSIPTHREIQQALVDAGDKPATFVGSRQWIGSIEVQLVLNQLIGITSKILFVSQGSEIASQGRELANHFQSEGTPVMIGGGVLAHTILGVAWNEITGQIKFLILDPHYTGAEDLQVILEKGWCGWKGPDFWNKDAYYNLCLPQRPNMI
# UniProt O14949: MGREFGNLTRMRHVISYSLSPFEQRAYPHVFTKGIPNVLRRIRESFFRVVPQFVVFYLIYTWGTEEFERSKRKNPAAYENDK
# UniProt P61758, whole entry, looked up: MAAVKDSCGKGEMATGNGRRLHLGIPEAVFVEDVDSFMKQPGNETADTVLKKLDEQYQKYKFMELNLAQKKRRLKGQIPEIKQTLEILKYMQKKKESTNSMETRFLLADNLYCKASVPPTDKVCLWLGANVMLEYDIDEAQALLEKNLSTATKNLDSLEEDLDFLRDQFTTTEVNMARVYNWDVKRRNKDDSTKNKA
# UniProt Q8WVY7: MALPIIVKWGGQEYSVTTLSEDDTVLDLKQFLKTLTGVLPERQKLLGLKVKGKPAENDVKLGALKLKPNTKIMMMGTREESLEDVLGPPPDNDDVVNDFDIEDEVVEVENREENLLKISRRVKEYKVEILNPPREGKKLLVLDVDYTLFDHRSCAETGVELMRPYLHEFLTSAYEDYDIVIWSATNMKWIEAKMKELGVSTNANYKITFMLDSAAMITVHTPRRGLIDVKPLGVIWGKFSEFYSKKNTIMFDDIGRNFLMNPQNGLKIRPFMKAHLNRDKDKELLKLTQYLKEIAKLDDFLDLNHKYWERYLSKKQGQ
# UniProt Q9UBK9, whole entry, looked up: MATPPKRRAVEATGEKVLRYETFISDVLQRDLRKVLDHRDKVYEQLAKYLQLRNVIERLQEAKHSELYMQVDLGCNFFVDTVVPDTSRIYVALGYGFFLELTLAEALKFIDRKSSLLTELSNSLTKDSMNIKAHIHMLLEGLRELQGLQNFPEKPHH
# This is one part of the list.
# Compound: CNC(=O)c1ccc(Nc2ncc(C(F)(F)F)c(NCc3nccnc3N(C)S(C)(=O)=O)n2)cc1 [defactinib]
# Assay: log2 fold change, soluble protein after heating vs DMSO (PISA); higher = thermal stabilisation; K562 cells, 10 uM, 30 min; active = over 0.2 and 3.5 SD of the protein, either way, in both replicates (recomputed)
# Summary of the method: (§1)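 K562 cells at 2×10^6 cells/mL were treated with 10 μM compound for 30 min. Aliquots were heated for 3 min across 48°C-58°C, pooled, and extracted in PBS with 0.5% NP-40 at 4°C; soluble protein was the supernatant after 21,000xg for 90 min. Soluble protein was quantified by TMTpro 16plex LC-MS/MS with channel sums equalised, and reported as log2 fold change in thermal stability against DMSO controls, with values from duplicates.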
row,Target,log2 fold change
1,UMPS (UniProt P11172),inactive: -0.021
2,USP9X (UniProt Q93008),inactive: -0.03
3,UBXN7 (UniProt O94888),inactive: -0.067
4,USP6NL isoform 2 (UniProt Q92738),inactive: -0.058
5,UBQLN1 (UniProt Q9UMX0),inactive: -0.02
6,USP22 (UniProt Q9UPT9),inactive: 0
7,UGT8 (UniProt Q16880),inactive: 0.462
8,VAMP2 (UniProt P63027),inactive: 0.091
9,UXS1 isoform 2 (UniProt Q8NBZ7),inactive: 0
10,VCP (UniProt P55072),inactive: -0.001
11,USP19 isoform 6 (UniProt O94966),inactive: -0.039
12,UTP15 (UniProt Q8TED0),inactive: 0.389
13,UBL4A (UniProt P11441),inactive: 0.003
14,UBE3C (UniProt Q15386),inactive: -0.037
15,VAMP4 (UniProt O75379),inactive: -0.029
16,UQCC1 (UniProt Q9NVA1),inactive: -0.024
17,UCKL1 (UniProt Q9NWZ5),inactive: -0.021
18,UQCRB (UniProt P14927),inactive: -0.006
19,VARS (UniProt P26640),inactive: -0.023
20,UBL5 (UniProt Q9BZL1),inactive: -0.101

row,Target,log2 fold change
1,USP20 (UniProt Q9Y2K6),inactive: -0.084
2,USP30 (UniProt Q70CQ3),inactive: -0.047
3,UPRT (UniProt Q96BW1),inactive: -0.053
4,UPF3B (UniProt Q9BZI7),inactive: 0.413
5,VAMP7 (UniProt P51809),inactive: -0.028
6,UVRAG (UniProt Q9P2Y5),inactive: 0.075
7,UFSP2 (UniProt Q9NUQ7),inactive: -0.048
8,UQCRQ (UniProt O14949),inactive: 0.025
9,USP15 (UniProt Q9Y4E8),inactive: -0.093
10,UBQLN2 (UniProt Q9UHD9),inactive: -0.036
11,UGDH (UniProt O60701),inactive: -0.209
12,UQCRC2 (UniProt P22695),inactive: -0.012
13,USP7 (UniProt Q93009),inactive: -0.104
14,UBQLN3 (UniProt Q9H347),inactive: -0.047
15,UCHL3 (UniProt P15374),inactive: -0.031
16,VBP1 (UniProt P61758),inactive: -0.006
17,UPF1 (UniProt Q92900),inactive: 0.026
18,UBLCP1 (UniProt Q8WVY7),inactive: -0.016
19,UXT isoform 2 (UniProt Q9UBK9),inactive: 0

# Compound: CNCc1ccc(-c2[nH]c3cc(F)cc4c3c2CCNC4=O)cc1 [rucaparib]
# Assay: as above
# Summary of the method: as §1
row,Target,log2 fold change
1,UMPS (UniProt P11172),inactive: -0.03
2,USP9X (UniProt Q93008),inactive: 0.032
3,UBXN7 (UniProt O94888),inactive: -0.026
4,USP6NL isoform 2 (UniProt Q92738),inactive: 0.014
5,UBQLN1 (UniProt Q9UMX0),inactive: -0.04
6,USP22 (UniProt Q9UPT9),inactive: 0.127
7,UGT8 (UniProt Q16880),inactive: 0.078
8,VAMP2 (UniProt P63027),inactive: -0.012
9,UXS1 isoform 2 (UniProt Q8NBZ7),inactive: 0.101
10,VCP (UniProt P55072),inactive: -0.023
11,USP19 isoform 6 (UniProt O94966),inactive: 0.01
12,UTP15 (UniProt Q8TED0),inactive: 0.395
13,UBL4A (UniProt P11441),inactive: 0.013
14,UBE3C (UniProt Q15386),inactive: -0.011
15,VAMP4 (UniProt O75379),inactive: 0.013
16,UQCC1 (UniProt Q9NVA1),inactive: -0.004
17,UCKL1 (UniProt Q9NWZ5),inactive: -0.071
18,UQCRB (UniProt P14927),inactive: 0.01
19,VARS (UniProt P26640),inactive: 0.091
20,UBL5 (UniProt Q9BZL1),inactive: -0.009

row,Target,log2 fold change
1,USP20 (UniProt Q9Y2K6),inactive: 0.104
2,USP30 (UniProt Q70CQ3),inactive: 0.023
3,UPRT (UniProt Q96BW1),inactive: -0.055
4,UPF3B (UniProt Q9BZI7),inactive: 0.286
5,VAMP7 (UniProt P51809),inactive: -0.027
6,UVRAG (UniProt Q9P2Y5),inactive: -0.018
7,UFSP2 (UniProt Q9NUQ7),inactive: -0.005
8,UQCRQ (UniProt O14949),inactive: 0.018
9,USP15 (UniProt Q9Y4E8),inactive: 0.032
10,UBQLN2 (UniProt Q9UHD9),inactive: -0.011
11,UGDH (UniProt O60701),inactive: -0.089
12,UQCRC2 (UniProt P22695),inactive: -0.006
13,UNC93B1 (UniProt Q9H1C4),inactive: -0.238
14,USP7 (UniProt Q93009),inactive: 0.03
15,UBQLN3 (UniProt Q9H347),inactive: 0.202
16,UCHL3 (UniProt P15374),inactive: -0.052
17,VBP1 (UniProt P61758),inactive: -0.022
18,UPF1 (UniProt Q92900),inactive: 0.024
19,UBLCP1 (UniProt Q8WVY7),inactive: -0.068
20,UXT isoform 2 (UniProt Q9UBK9),inactive: 0.049
